At least one structure is not confirmed: it was looked up by name or label, or the drawing left a doubt.
Experiments:
[1] = tested on: HL-60 and normal marrow CD34+ cells; conditions: cells exposed to retinoic acid; cited from earlier work
CD34+ cells = assay: Ex vivo expansion of CD34+ cells with the PI 3-kinase inhibitor Ly294002; format: cell-based, human; conditions: three weeks in culture, 5 μM/L
Method: Mononuclear cell fraction collection and purification: Human blood cells were obtained from umbilical cord blood from female patients following full-term, normal delivery (informed consent was obtained). Samples were collected and processed within 12 hours postpartum. […] Louis, Mo.), sedimented for 30 minutes to remove most red blood cells. The leukocyte-rich fraction was harvested and layered on a Ficoll-Hypaque gradient (1.077 gram/ml; Sigma), and centrifuged at 400 g for 30 minutes. […] Sigma, St. Louis, Mo.). […] The purity of the CD34^+ population obtained ranged from 95% to 98%, as determined by flow cytometry (see below). […] Cells were counted following staining with trypan blue. […] Cell morphology was determined on cytospin (Shandon, Pittsburgh, Pa., USA) prepared smears stained with May-Grunwald/Giemsa solutions. […] The cells were then washed in the above buffer and analyzed using a FACScalibur® flow cytometer (Becton Dickinson, San Jose, Calif., USA). […] Emission of 10^4 cells was measured using logarithmic amplification, and analyzed using the CellQuest software (Becton Dickinson). Determination of CD34+ cell content after expansion: The content of CD34+ cells was determined from a purified, re-selected fraction of expanded hematopoietic progenitor cells, using the MiniMACS CD34 progenitor cell isolation kit (Miltenyi Biotec) according to the manufacturers recommendations. […]

SMILES | retinoic acid-induced CD38 mRNA expression and membrane CD38 antigen overexpression [1] | cell morphology (May-Grunwald/Giemsa) (CD34+ cells)
COC[C@H]1OC(=O)c2coc3c2[C@@]1(C)C1=C(C3=O)[C@@H]2CCC(=O)[C@@]2(C)C[C@H]1OC(C)=O [wortmannin] | prevented increase in CD38 mRNA expression | 
O=c1cc(N2CCOCC2)oc2c(-c3ccccc3)cccc12 [LY294002] | prevented increase in CD38 mRNA expression | persistence of characteristic CD34^+ cell morphology
